Data reported in PubChem BioAssay AID588590 (National Center for Advancing Translational Sciences (NCATS), 2011).
Out of some 390,000 compounds screened, about 4,000 (1%) were called active. The shares of active, inactive and inconclusive entries below differ from those in the screen. The call rests on the fitted dose curve; in most records, active means well fitted inhibition curve with a large enough effect; inconclusive means small, poorly fitted or top-dose-only effect, or another doubt; inactive means no such curve, though single readings can be large or run the other way. Potencies beside an inconclusive call are fits to weak or partial responses and may not hold up.

Amino acid sequences for entries named in this document (tags omitted). A change or cut given only in a name is not applied to a line headed by its entry.
UniProt Q9UNA4: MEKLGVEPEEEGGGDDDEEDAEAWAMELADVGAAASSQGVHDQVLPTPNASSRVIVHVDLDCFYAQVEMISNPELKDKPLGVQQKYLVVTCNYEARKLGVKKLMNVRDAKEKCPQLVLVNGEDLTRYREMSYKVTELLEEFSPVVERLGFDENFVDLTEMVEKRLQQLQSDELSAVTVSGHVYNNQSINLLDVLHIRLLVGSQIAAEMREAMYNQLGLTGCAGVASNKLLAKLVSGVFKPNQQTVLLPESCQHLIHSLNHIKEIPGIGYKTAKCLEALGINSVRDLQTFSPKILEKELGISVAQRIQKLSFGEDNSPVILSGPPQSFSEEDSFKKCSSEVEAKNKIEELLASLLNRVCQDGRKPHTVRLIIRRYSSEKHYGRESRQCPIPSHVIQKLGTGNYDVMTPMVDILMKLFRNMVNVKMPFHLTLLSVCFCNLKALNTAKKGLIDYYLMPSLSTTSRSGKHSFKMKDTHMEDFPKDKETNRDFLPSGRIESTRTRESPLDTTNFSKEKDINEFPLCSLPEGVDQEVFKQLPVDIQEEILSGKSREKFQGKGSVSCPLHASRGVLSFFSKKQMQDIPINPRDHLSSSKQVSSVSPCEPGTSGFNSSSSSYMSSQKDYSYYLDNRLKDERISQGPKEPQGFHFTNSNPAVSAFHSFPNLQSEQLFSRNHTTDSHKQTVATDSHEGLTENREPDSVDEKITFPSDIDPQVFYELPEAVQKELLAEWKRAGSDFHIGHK

biological target: DNA polymerase iota (Homo sapiens) (UniProt Q9UNA4); test: qHTS for Inhibitors of Polymerase Iota; conditions: Pol iota fluorescent replication assay, 10 min; series mostly up to 115 µM; activity, negative = inhibition: at the top concentration
How it was run: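 Fluorescent replication assay read twice, at 0 min and 10 min after adding 50 nM (final) substrate. Enzyme (10 nM) and compounds were first incubated 15 min at room temperature; enzyme-free buffer wells were negative controls.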
Potency means the concentration at half of the fitted maximal effect.

Question: CCCNc1c(NS(=O)(=O)c2ccc(C3CCCCC3)cc2)c(=O)oc2ccccc12 was tested. Which Potency did it give?
Answer: inconclusive: 89.1 µM [inhibitor, single point]

Question: Which Potency does the source give for O=C(NC1=NCCS1)c1ccc2c(c1)C(=O)N(Cc1ccco1)C2=O here?
Answer: inconclusive: 70.8 µM [inhibitor, partial curve, poor fit]

Question: CC1(C)C(=O)Nc2ccccc2N1C(=O)COC(=O)Cc1ccc(Cl)c(Cl)c1 was tested. Which Potency did it give?
Answer: inconclusive: 70.8 µM [inhibitor, partial curve]

Question: Which “activity, negative = inhibition” value does the source give for O=C(Cc1cccc2ccccc12)NO here?
Answer: inactive: -1.23%

Question: N#C/C(=C/c1ccc(N2CCCCCC2)o1)c1ccc(Cl)cc1 was tested. Which Potency did it give?
Answer: inconclusive: 22.4 µM [inhibitor, partial curve, poor fit]

Question: With CC1=[N+](C)c2ccc3ccccc3c2C1(C)C as the molecule, how does the Potency read?
Answer: inconclusive: 20 µM [inhibitor, partial curve, poor fit]

Question: With CC(=O)Nc1ccc(S(=O)(=O)Nc2nc3nc(-c4ccccc4)cc(-c4ccccc4)n3n2)cc1 as the molecule, how does the Potency read?
Answer: inconclusive: 56.2 µM [inhibitor, partial curve, poor fit]

Question: How did the Potency turn out when O=C(O)CC(C(=O)O)N1C(=O)/C(=C/c2ccc(-c3nc4ccccc4s3)o2)SC1=S (centres undefined) was run?
Answer: active: 1 µM

Question: For O=C(O)CSc1nc(-c2ccccc2)nc2c1oc1ccccc12, which “activity, negative = inhibition” value is on record?
Answer: inactive: -0.104%

Question: Which “activity, negative = inhibition” value does the source give for O=C(Cc1ccc(Cl)cc1)Nc1ccc2oc(-c3ccc(F)cc3)nc2c1 here?
Answer: inactive: -3.15%

Question: How did the “activity, negative = inhibition” value turn out when CCC(=O)N1c2ccccc2CC1C(=O)NCCN1CCN(c2cc(Cl)ccc2C)CC1 (centres undefined) was run?
Answer: inactive: -2.83%

Question: For CCCC1=Nc2cc(C(=O)NC3CCCCC3)ccc2Sc2ccc(C)cc21, which “activity, negative = inhibition” value is on record?
Answer: inactive: 23.6%

Question: CCN(CC)Cc1cc(O)c(CN(CC)CC)cc1O was tested. Which Potency did it give?
Answer: inconclusive: 8.91 µM [inhibitor, full curve, poor fit]

Question: COc1ccc(CNC(=O)c2ccc(N3CCC4(CC3)CC(c3ccc(Cl)cc3)=NO4)c([N+](=O)[O-])c2)cc1 was tested. Which Potency did it give?
Answer: inconclusive: 39.8 µM [inhibitor, single point]

Question: Which “activity, negative = inhibition” value does the source give for Cc1c(NS(=O)(=O)c2cc(C(=O)NCc3cccc(Cl)c3)ccc2Cl)c(=O)n(-c2ccccc2)n1C here?
Answer: inactive: 28%

Question: O=[N+]([O-])c1ccc(Nc2nc(Cl)nc(NCCO)n2)cc1 was tested. Which “activity, negative = inhibition” value did it give?
Answer: inactive: 6.58%

Question: With CCOc1cccc2cc(-c3nnc(NCc4ccco4)s3)c(=O)oc12 as the molecule, how does the Potency read?
Answer: inconclusive: 8.91 µM [inhibitor, full curve, poor fit]

Question: COc1cccc(OC)c1-c1cc(CCCc2cc(-c3c(OC)cccc3OC)nc3ccccc23)c2ccccc2n1 was tested. Which Potency did it give?
Answer: inconclusive: 89.1 µM [inhibitor, partial curve, poor fit]

Question: With O=[N+]([O-])c1cc(/C=N/Nc2nc3ccccc3[nH]2)c(O)cc1O as the molecule, how does the Potency read?
Answer: active: 44.7 µM

Question: Which “activity, negative = inhibition” value does the source give for CCOC(=O)c1cccc(-n2cccc2/C=C2\NC(=O)N(CC(=O)O)C2=O)c1 here?
Answer: inactive: 41.3%

Question: O=C(CSc1nnnn1-c1ccccc1)NC(=O)Cc1ccccc1 was tested. Which Potency did it give?
Answer: inconclusive: 89.1 µM [inhibitor, single point]

Question: For COc1ccc(C(=O)Nc2ccc(S(=O)(=O)Nc3ncccn3)cc2)cc1OC, which Potency is on record?
Answer: inconclusive: 100 µM [inhibitor, single point]

Question: Which “activity, negative = inhibition” value does the source give for O=C(CSc1nc(=O)n(Cc2ccncc2)c2c1CCC2)Nc1cccc(F)c1 here?
Answer: inactive: 20.6%

Question: How did the Potency turn out when CCOC(=O)N1CCN(C(=O)CSCc2nc(-c3ccccc3F)oc2C)CC1 was run?
Answer: active: 89.1 µM

Question: Which Potency does the source give for Cc1cc(NS(=O)(=O)c2ccc(NC(=O)CCCOc3ccccc3C)cc2)nc(C)n1 here?
Answer: active: 10 µM

Question: Which Potency does the source give for Cc1ccc(NC(=S)c2ccc3ccccc3n2)c(C)c1 here?
Answer: inconclusive: 79.4 µM [inhibitor, partial curve]

Question: For CCN(CC)CCNC(=O)c1ccc(NC(=O)c2cc(-c3ccco3)nc3ccccc23)cc1, which Potency is on record?
Answer: inconclusive: 79.4 µM [inhibitor, single point]

Question: For COc1ccc(-c2cc(C(F)(F)F)n3nc(C(=O)NCc4ccco4)cc3n2)cc1, which “activity, negative = inhibition” value is on record?
Answer: inactive: -1.95%

Question: How did the “activity, negative = inhibition” value turn out when COC(=O)c1c(NC(=O)c2ccc(C(C)(C)C)cc2)sc2c1CCC(C)C2 (centres undefined) was run?
Answer: inactive: 15%

Question: Which Potency does the source give for O=c1cc(CSc2nnnn2-c2ccccc2)nc(Nc2ccc(F)cc2)[nH]1 here?
Answer: active: 44.7 µM

Question: Which Potency does the source give for COC(=O)c1nn(-c2c(C)n(C)n(-c3ccccc3)c2=O)cc1O here?
Answer: inconclusive: 70.8 µM [inhibitor, single point]

Question: How did the Potency turn out when CN(C(=O)c1cccc(NC(=O)Cc2ccc(NC(=O)C3CCN(S(=O)(=O)c4cccc([N+](=O)[O-])c4)CC3)cc2)c1)C1CCCCC1 was run?
Answer: inconclusive: 100 µM [inhibitor, single point]

Question: How did the Potency turn out when CCCCCCNC(=O)c1cc(-c2ccco2)nc2ccccc12 was run?
Answer: inconclusive: 22.4 µM [inhibitor, full curve, poor fit]

Question: With CCCCOc1ccc(N(CC(=O)NCCOC)C(=O)CCC(=O)Nc2ccccn2)cc1 as the molecule, how does the Potency read?
Answer: inconclusive: 89.1 µM [inhibitor, single point]

Question: How did the Potency turn out when O=C(O)CN1C(=O)CSC1=S was run?
Answer: inconclusive: 15.8 µM [inhibitor, full curve, poor fit]

Question: How did the “activity, negative = inhibition” value turn out when CC1CCN(C(=O)COC(=O)c2ccc(N3CCCC3=O)cc2)CC1 was run?
Answer: inactive: 26.1%

Question: Cc1ccc(NC(=O)CCC(=O)N/N=C/c2ccc([N+](=O)[O-])o2)cc1C was tested. Which Potency did it give?
Answer: inconclusive: 50.1 µM [inhibitor, single point]

Question: For O=C(O)C1CCC(=O)N1C(=O)OCc1ccccc1 (centres undefined), which “activity, negative = inhibition” value is on record?
Answer: inactive: -12.5%

Question: How did the “activity, negative = inhibition” value turn out when CCOC(=O)c1c(S(=O)(=O)N2CCC(C(=O)NCc3ccccc3Cl)CC2)c(C)n(C)c1C was run?
Answer: inactive: 12.2%

Question: CCOc1ccc(N(C)C(=O)CCc2nnc3ccc(NCc4ccco4)nn23)cc1 was tested. Which “activity, negative = inhibition” value did it give?
Answer: inactive: 66.3%

Question: With Cc1cccc(NC(=O)/C(C#N)=C/c2ccc(F)cc2)n1 as the molecule, how does the Potency read?
Answer: inconclusive: 10 µM [inhibitor, single point]

Question: Cc1ccccc1N1CCN(C2CCCN(C(=O)CCn3cnnn3)C2)CC1 (centres undefined) was tested. Which “activity, negative = inhibition” value did it give?
Answer: inactive: -12.9%

Question: O=C(Cc1ccc(NC(=O)C2CCN(C(=O)CCc3ccccc3)CC2)cc1)Nc1ccc(C(=O)N2CCOCC2)cc1 was tested. Which “activity, negative = inhibition” value did it give?
Answer: inactive: 25.3%

Question: Clc1ccc(CSc2nncn3c2cc2occc23)cc1 was tested. Which Potency did it give?
Answer: inconclusive: 63.1 µM [inhibitor, partial curve, poor fit]

Question: Which Potency does the source give for Cc1ccccc1S(=O)(=O)Cc1ccc(C(=O)NCCN(CC(C)C)CC(C)C)o1 here?
Answer: inconclusive: 79.4 µM [inhibitor, partial curve, poor fit]

Question: With COC(=O)c1sc(-c2ccc(C(C)(C)C)cc2)cc1NC(=O)CCC(=O)O as the molecule, how does the Potency read?
Answer: inconclusive: 79.4 µM [inhibitor, partial curve, poor fit]

Question: CC1=CC(=O)C=C(C)C1=NOC(=O)/C=C\c1ccccc1 was tested. Which Potency did it give?
Answer: inconclusive: 28.2 µM [inhibitor, partial curve, poor fit]

Question: OC(CNc1ccccc1)Cn1ccc2ccccc21 (centres undefined) was tested. Which Potency did it give?
Answer: inconclusive: 63.1 µM [inhibitor, partial curve, poor fit]

Question: How did the Potency turn out when Cc1ccc(NC(=O)c2sc3nc(N)c(C#N)cc3c2N)cc1 was run?
Answer: inconclusive: 17.8 µM [inhibitor, partial curve, poor fit]

Question: How did the Potency turn out when CCCCCn1c(C)c2c(OCC)cccc(=O)c2c1C was run?
Answer: inconclusive: 35.5 µM [inhibitor, single point]

Question: For O=C(CSCc1ccc(Cl)cc1)Nc1ccc2c(c1)OCCO2, which “activity, negative = inhibition” value is on record?
Answer: inactive: 9.23%

Question: How did the Potency turn out when COc1ccc(-n2nc3c(N4CCC(C(=O)NCc5cccc(C)c5)CC4)nnc(C)c3c2C)cc1 was run?
Answer: inconclusive: 0.708 µM [inhibitor, full curve, poor fit]

Question: For CCOc1ccccc1-n1c(=O)c2ccccc2c2ccccc2c1=O, which “activity, negative = inhibition” value is on record?
Answer: inactive: 5.24%

Question: How did the “activity, negative = inhibition” value turn out when Nc1ccn(Cc2ccc(F)cc2)n1 was run?
Answer: inactive: 13.9%

Question: Which “activity, negative = inhibition” value does the source give for CCOc1ccc(N=Nc2ccc(O)c3ncccc23)cc1 here?
Answer: inactive: 73.6%

Question: Which “activity, negative = inhibition” value does the source give for COc1ccc(OC)c(-c2c3c([nH]c(=S)c2C#N)CCCC3)c1 here?
Answer: inactive: 79.8%

Question: With C/C(=N/O)c1no[n+]([O-])c1/C(C)=N\O as the molecule, how does the Potency read?
Answer: inconclusive: 39.8 µM [inhibitor, partial curve, poor fit]

Question: For Cc1cc(-c2nnc(SCC(=O)Nc3nccs3)o2)no1, which Potency is on record?
Answer: inconclusive: 11.2 µM [inhibitor, full curve, poor fit]

Question: S=C(NCCCc1cnc[nH]1)NCCCN(Cc1ccc(Cl)cc1)c1cc(-c2ccccc2)ccn1 was tested. Which Potency did it give?
Answer: inconclusive: 56.2 µM [inhibitor, partial curve, poor fit]

Question: With Cc1cc(C)cc(NC(=O)CSc2nc3nc(C)cc(C)c3c(=O)[nH]2)c1 as the molecule, how does the “activity, negative = inhibition” value read?
Answer: inactive: 12.3%

Question: How did the Potency turn out when COc1cc(C2Nc3ccccc3C(=O)N2Cc2ccccc2)ccc1OCc1ccccc1 (centres undefined) was run?
Answer: inconclusive: 89.1 µM [inhibitor, single point]

Question: For FC(F)(F)c1cc(CO[C@H]2CCCN[C@H]2c2ccccc2)cc(C(F)(F)F)c1, which Potency is on record?
Answer: inconclusive: 0.0178 µM [inhibitor, full curve]

Question: Which Potency does the source give for CCc1ccc(NC(=O)c2ccc(F)c(S(=O)(=O)NCC3COc4ccccc4O3)c2)cc1 (centres undefined) here?
Answer: inconclusive: 22.4 µM [inhibitor, partial curve, poor fit]

Question: For COc1ccc2nc(NC(=O)c3cnccn3)sc2c1, which Potency is on record?
Answer: inconclusive: 17.8 µM [inhibitor, full curve]

Question: Which Potency does the source give for O=C(O)c1cccc(S(=O)(=O)NCC2COc3ccccc3O2)c1 (centres undefined) here?
Answer: inconclusive: 79.4 µM [inhibitor, single point]

Question: Which “activity, negative = inhibition” value does the source give for CCOc1cc(/C=C(/C#N)c2nc3ccccc3[nH]2)ccc1OCc1ccc(C(=O)O)o1 here?
Answer: inactive: -21.2%

Question: Cc1c(NS(=O)(=O)c2cc(C(=O)NCCN(C)C)ccc2Cl)c(=O)n(-c2ccccc2)n1C was tested. Which Potency did it give?
Answer: inconclusive: 44.7 µM [inhibitor, partial curve, poor fit]

Question: Which Potency does the source give for O=C(Nc1cccc(C(F)(F)F)c1)c1cc2ncc(Br)cn2n1 here?
Answer: inconclusive: 44.7 µM [inhibitor, single point]

Question: How did the Potency turn out when C[C@H]1CN([C@@H](C)CO)C(=O)c2cccc(NC(=O)c3ccncc3)c2O[C@H]1CN(C)C(=O)Nc1ccccc1 was run?
Answer: inconclusive: 25.1 µM [inhibitor, single point]
